# Data taken from publication PMC9906428, “LONP1 targets HMGCS2 to protect mitochondrial function and attenuate chronic kidney disease” (EMBO Molecular Medicine, 2023).
# Results are given in words; binding and its absence hold for the method and conditions named. Binding seen in cells or lysates may run through a third protein. Some entries that bind do so weakly or less than the wild type. Where a sequence is shown, tags or fusion partners need not be part of it.
# T1: LONP1-Flag (UniProt P36776)
# T1 sequence: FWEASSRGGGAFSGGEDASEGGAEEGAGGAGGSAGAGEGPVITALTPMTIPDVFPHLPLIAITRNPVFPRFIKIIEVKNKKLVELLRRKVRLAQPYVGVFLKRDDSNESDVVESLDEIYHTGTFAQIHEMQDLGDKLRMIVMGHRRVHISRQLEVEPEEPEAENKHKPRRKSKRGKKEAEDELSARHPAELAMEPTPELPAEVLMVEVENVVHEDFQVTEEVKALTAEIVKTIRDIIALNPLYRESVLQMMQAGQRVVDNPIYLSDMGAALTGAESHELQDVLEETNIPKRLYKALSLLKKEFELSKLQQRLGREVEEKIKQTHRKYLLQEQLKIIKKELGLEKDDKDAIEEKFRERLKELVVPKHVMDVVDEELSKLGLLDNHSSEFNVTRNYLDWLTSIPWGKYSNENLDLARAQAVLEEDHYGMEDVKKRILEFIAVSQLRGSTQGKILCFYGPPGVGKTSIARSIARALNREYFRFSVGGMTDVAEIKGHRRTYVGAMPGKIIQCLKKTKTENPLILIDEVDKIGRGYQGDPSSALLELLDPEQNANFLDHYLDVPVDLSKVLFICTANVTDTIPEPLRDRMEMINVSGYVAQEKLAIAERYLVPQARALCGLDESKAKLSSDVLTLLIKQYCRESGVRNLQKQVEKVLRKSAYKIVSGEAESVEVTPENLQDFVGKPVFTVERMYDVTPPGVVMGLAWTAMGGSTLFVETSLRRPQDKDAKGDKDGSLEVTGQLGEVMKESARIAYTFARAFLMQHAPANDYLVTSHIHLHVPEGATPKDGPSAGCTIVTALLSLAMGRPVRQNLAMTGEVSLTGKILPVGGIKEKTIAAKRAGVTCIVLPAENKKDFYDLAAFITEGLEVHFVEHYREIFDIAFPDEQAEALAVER
# T2: LONP1-GST (human) (UniProt P36776)
# T2 sequence: T1 sequence
# B1: HMGCS2 (from HMGCS2 plasmid, 293T cells) (enzyme, UniProt P54868 38-508)
# chain: TASAVPLAKTDTWPKDVGILALEVYFPAQYVDQTDLEKYNNVEAGKYTVGLGQTRMGFCSVQEDINSLCLTVVQRLMERIQLPWDSVGRLEVGTETIIDKSKAVKTVLMELFQDSGNTDIEGIDTTNACYGGTASLFNAANWMESSSWDGRYAMVVCGDIAVYPSGNARPTGGAGAVAMLIGPKAPLALERGLRGTHMENVYDFYKPNLASEYPIVDGKLSIQCYLRALDRCYTSYRKKIQNQWKQAGSDRPFTLDDLQYMIFHTPFCKMVQKSLARLMFNDFLSASSDTQTSLYKGLEAFGGLKLEDTYTNKDLDKALLKASQDMFDKKTKASLYLSTHNGNMYTSSLYGCLASLLSHHSAQELAGSRIGAFSYGSGLAASFFSFRVSQDAAPGSPLDKLVSSTSDLPKRLASRKCVSPEEFTEIMNQREQFYHKVNFSPPGDTNSLFPGTWYLERVDEQHRRKYARRPV
# B2: HMGCS2 (from 293T cell lysates) (enzyme, UniProt P54868 38-508)
# chain: B1 chain
# Experiments:
# LONP1-Flag = target: T1, LONP1-Flag; test: co-IP; 293T cells transfected with LONP1-Flag and HMGCS2 plasmids, Bortezomib for 4 h before collection; mouse anti-flag antibody (20 μg/ml) or normal mouse IgG, protein A/G magnetic beads, 4°C; 50 mM Tris, 150 mM NaCl, 0.25% Tween 20, pH 7.5; western blot
# LONP1-GST (human) = target: T2, LONP1-GST (human); test: pull-down; purified LONP1-GST as bait, prey HMGCS2 from 293T cell lysates; Pierce GST Protein Interaction Pull-Down Kit; only the target purified
Binder,binding (LONP1-Flag),binding (LONP1-GST (human))
B1,binds,–
B2,–,binds
